Results are given in words; binding and its absence hold for the method and conditions named. For some assays here: In cells and extracts the contact can be indirect. Some results given as binding are weak or reduced against the parent protein; the word gives no strength. For some assays here: Where a sequence is shown, tags or fusion partners need not be part of it.
B1: Calcyclin, two-hybrid prey (domain or fragment)
chain: DKFVKIYITLTGVHQVPTENVQVHFTERSFDLLVKNLNGKNYSMIVNNLLKPISVESSSKKVKTDTVIILCRKKAENTRWDYLTQVEKECKEKE
B2: AP2m1, two-hybrid prey (domain or fragment)
chain: PKRACQFNRTQLGDCSGIGDPTHYGYSTGQPCVFIKMNRVINFYAGANQSMNVTCVGKRDEDAENLGHFVMFPANGSIDLMYFPYYGKKFHVNYTQPLVAVKFLNVTPNVEVNVECRINAANIATDDERDKFAGRVAFKLRINKT
B3: 3xHA-SIVA-1 (protein, UniProt O54926 1-175)
chain: MPKRSCPFADAAPLQLKVHVGLKELSHGVFAERYSREVFERTKQLLFQGARAYRDHISSEDCSVNHLQESLKSGVVGAPQPARGQMLIGPDGRLTRCQAQASEGGLPRTAPIACSSCMRSVDGKAVCSQCERALCGQCVYTCWGCGALACVLCGLADYADDGEKTLCTSCAMFEA
B4: 3xFLAG-FAIM-L (protein, UniProt Q9NVQ4-3 1-201)
chain: MASGDDSPIFEDDESPPYSLEKMTDLVAVWDVALSDGVHKIEFEHGTTSGKRVVYVDGKEEIRKEWMFKLVGKETFYVGAAKTKATINIDAISGFAYEYTLEINGKSLKKYMEDRSKTTNTWVLHMDGENFRIVLEKDAMDVWCNGKKLETAGEFVDDGTETHFSIGNHDCYIKAVSSGKRKEGIIHTLIVDNREIPEIAS
B5: 3xFLAG-SIVA-1 (protein, UniProt O15304 1-175)
chain: MPKRSCPFADVAPLQLKVRVSQRELSRGVCAERYSQEVFEKTKRLLFLGAQAYLDHVWDEGCAVVHLPESPKPGPTGAPRAARGQMLIGPDGRLIRSLGQASEADPSGVASIACSSCVRAVDGKAVCGQCERALCGQCVRTCWGCGSVACTLCGLVDCSDMYEKVLCTSCAMFET
B6: FERM RhoGEF, two-hybrid prey (domain or fragment)
chain: HELKKDLIGIDNLVTPGREFIRLGSLSKLSGKGLQQRMFFLFNDVLLYTSRGLTASNQFKVHGQLPLYGMTIEESEEEWGVPHCLTLRGQRQSIIVAASSRSEMEKWMEDIQMAIDLAEKSNGPTPELLASSPPDNKSPDEA
B7: COMMD1, two-hybrid prey (domain or fragment)
chain: EGGKSLSGLLSGLAQNAFHGHSGVTEELLHSQLYPEVPPEEFRPFLAKMRGLLKSIASADMDFNQLEAFLTAQTKKQGGITSEQAAVISKFWKSHKIKIRESLMKQSRWDNGLRGLSWRVDGKSQSRHSTQIHSPVAIIELEFGKNGQESEFLCLEFDEVKVKQILKKLSEVEESINRLMQAA

Protein sequences, listed by entry. Tags and fused reporters are not part of them.
UniProt P98170: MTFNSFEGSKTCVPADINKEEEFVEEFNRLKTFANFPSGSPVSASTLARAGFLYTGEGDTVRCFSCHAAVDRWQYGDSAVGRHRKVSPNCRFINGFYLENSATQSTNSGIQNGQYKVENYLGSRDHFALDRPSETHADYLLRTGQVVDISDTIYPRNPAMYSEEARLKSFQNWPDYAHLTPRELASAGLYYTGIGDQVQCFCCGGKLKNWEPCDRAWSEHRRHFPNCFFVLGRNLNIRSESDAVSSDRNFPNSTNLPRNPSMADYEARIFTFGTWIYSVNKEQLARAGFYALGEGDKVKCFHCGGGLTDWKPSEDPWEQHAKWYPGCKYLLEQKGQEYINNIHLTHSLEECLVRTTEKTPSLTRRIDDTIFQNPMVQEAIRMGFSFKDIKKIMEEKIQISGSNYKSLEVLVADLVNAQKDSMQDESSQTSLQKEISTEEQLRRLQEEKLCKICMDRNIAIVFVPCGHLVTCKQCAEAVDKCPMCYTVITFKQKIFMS

How the values were obtained:
[1] = molecular target: T1, pGBKT7-N-term FAIM-L (22 N-terminal-specific amino acids of FAIM-L); experiment: two-hybrid; Matchmaker two-hybrid system 3, by mating; baits in pGBKT7 (Y187), pACT2-mouse cDNA library preys (AH109); selection without leucine, tryptophan and histidine, with 20 mM aminotriazole; confirmed by back transformation in yeast
T1 sequence: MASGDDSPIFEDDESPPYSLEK

[2] = molecular target: T2, pGBKT7-full length FAIM-L (long isoform of Fas apoptosis inhibitory molecule) (UniProt Q9NVQ4); experiment: as above
T2 sequence: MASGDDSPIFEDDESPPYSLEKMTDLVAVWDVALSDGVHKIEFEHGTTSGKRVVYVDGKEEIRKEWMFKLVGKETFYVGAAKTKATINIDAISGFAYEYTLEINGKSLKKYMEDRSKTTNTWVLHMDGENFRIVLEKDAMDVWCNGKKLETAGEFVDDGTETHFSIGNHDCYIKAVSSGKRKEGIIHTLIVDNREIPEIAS

3xFLAG-FAIM-L = molecular target: T3, 3xFLAG-FAIM-L (UniProt Q9NVQ4); experiment: co-IP; HEK293T cells transfected; FLAG-FAIM-L immunoprecipitated with FLAG M2 Affinity agarose beads, blot anti-HA; 10 µM MG132 used to impair the degradation of ΔSIVA-1; IP lysis buffer 20 mM Tris/HCl pH 7.4, 150 mM NaCl, 2 mM EDTA, 10% glycerol, 1% Triton X-100, overnight at 4 °C
T3 sequence: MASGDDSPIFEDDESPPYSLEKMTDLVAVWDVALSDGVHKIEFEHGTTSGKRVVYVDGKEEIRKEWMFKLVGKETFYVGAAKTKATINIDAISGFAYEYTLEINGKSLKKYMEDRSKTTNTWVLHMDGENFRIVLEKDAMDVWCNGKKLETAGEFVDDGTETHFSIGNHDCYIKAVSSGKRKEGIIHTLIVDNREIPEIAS

[3] = molecular target: 6xMyc-XIAP (X-linked inhibitor of apoptosis protein) (UniProt P98170); experiment: co-IP; cells transiently transfected with Myc-XIAP, FLAG-FAIM-L and FLAG-SIVA-1 (cell line not given); Myc-XIAP immunoprecipitated with anti-Myc antibody and protein G, blot anti-FLAG
[4] = molecular target: 6xMyc-XIAP (X-linked inhibitor of apoptosis protein) (UniProt P98170); experiment: co-IP; PC12 cells transiently transfected with Myc-XIAP, FLAG-FAIM-L and two concentrations of HA-SIVA-1; Myc-XIAP immunoprecipitated with anti-Myc antibody, blot anti-FLAG and anti-HA

| Binder | binding [1] | binding [2] | further results |
| --- | --- | --- | --- |
| MPKRSCPFADAAPLQLKVHVGLKELSHGVFAERYSREV (domain or fragment) [SIVA-1 (ΔSIVA-1), N-terminal fragment of SIVA-1, two-hybrid prey] | binds | binds | – |
| B1 | binds | binds | – |
| B2 | binds | binds | – |
| B3 | – | – | binding (3xFLAG-FAIM-L): binds |
| MPKRSCPFADAAPLQLKVHVGLKELSHGVFAERYSREV (domain or fragment) [3xHA-ΔSIVA-1] | – | – | binding (3xFLAG-FAIM-L): binds |
| B4 | – | – | binding [3]: binds; binding [4]: binds |
| B5 | – | – | binding [3]: binds |
| B6 | binds | binds | – |
| YSNRMVDLMAYMASKE (domain or fragment) [GAPDH, two-hybrid prey] | binds | binds | – |
| B7 | binds | binds | – |

From article PMC6997380
